# According to the supplement of paper PMC10849652:
# The chains behind the UniProt entries cited, without tags or fusion partners. Where a name states a change or a piece, a line headed by the entry shows the natural chain unless it says otherwise.
# UniProt Q9BQD3: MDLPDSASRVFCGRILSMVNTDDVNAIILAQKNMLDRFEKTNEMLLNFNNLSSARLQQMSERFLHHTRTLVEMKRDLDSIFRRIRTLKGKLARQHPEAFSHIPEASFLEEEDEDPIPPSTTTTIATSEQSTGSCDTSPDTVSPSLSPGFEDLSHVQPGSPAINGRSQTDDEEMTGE
# UniProt Q96A73: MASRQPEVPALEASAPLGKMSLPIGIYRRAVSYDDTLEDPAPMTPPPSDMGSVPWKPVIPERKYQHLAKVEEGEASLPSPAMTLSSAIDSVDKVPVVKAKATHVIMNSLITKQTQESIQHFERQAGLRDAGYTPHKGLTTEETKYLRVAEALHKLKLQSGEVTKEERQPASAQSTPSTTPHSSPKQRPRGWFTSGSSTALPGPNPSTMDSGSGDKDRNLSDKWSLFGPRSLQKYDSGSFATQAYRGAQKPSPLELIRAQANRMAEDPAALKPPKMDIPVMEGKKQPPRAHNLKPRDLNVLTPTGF
# UniProt Q15058: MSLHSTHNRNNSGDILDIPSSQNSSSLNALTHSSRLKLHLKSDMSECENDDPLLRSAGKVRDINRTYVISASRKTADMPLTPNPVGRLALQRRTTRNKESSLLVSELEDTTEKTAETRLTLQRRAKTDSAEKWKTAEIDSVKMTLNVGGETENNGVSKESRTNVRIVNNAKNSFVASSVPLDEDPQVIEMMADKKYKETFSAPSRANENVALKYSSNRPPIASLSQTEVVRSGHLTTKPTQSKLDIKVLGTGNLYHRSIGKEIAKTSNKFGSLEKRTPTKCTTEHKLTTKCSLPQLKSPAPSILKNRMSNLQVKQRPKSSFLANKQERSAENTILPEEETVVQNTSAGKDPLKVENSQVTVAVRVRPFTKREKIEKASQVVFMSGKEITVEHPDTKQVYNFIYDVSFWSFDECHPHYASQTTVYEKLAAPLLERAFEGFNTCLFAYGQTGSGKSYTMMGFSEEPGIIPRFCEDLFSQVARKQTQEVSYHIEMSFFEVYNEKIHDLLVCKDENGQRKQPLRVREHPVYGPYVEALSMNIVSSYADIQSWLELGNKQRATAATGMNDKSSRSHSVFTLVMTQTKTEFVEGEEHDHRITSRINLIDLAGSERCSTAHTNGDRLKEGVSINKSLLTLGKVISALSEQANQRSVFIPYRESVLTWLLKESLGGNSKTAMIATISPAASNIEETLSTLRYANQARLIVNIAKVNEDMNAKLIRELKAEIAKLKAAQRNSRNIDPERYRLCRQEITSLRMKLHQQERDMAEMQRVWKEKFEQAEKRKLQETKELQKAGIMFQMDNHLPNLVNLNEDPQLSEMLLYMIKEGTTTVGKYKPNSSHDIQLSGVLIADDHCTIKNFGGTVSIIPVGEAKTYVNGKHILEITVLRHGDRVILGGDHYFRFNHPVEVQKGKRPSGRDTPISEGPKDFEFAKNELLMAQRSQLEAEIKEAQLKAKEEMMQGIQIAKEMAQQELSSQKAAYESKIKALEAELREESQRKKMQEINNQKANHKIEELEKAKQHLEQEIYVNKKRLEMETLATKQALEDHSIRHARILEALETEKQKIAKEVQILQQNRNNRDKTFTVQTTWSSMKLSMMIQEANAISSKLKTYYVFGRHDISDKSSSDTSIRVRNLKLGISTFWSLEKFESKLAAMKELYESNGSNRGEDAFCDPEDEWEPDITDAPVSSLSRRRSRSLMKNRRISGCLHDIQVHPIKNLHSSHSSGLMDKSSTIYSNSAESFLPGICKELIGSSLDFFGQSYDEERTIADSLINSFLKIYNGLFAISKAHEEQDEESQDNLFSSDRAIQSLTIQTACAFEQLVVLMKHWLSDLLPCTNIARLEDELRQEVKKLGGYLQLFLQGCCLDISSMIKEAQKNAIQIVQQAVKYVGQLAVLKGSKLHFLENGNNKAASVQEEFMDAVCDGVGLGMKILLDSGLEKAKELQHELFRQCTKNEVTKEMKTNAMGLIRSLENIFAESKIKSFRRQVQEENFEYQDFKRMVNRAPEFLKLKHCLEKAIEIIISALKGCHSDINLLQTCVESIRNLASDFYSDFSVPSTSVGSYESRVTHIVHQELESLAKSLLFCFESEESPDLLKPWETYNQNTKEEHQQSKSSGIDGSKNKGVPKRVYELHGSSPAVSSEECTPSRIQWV
# UniProt Q2VIQ3: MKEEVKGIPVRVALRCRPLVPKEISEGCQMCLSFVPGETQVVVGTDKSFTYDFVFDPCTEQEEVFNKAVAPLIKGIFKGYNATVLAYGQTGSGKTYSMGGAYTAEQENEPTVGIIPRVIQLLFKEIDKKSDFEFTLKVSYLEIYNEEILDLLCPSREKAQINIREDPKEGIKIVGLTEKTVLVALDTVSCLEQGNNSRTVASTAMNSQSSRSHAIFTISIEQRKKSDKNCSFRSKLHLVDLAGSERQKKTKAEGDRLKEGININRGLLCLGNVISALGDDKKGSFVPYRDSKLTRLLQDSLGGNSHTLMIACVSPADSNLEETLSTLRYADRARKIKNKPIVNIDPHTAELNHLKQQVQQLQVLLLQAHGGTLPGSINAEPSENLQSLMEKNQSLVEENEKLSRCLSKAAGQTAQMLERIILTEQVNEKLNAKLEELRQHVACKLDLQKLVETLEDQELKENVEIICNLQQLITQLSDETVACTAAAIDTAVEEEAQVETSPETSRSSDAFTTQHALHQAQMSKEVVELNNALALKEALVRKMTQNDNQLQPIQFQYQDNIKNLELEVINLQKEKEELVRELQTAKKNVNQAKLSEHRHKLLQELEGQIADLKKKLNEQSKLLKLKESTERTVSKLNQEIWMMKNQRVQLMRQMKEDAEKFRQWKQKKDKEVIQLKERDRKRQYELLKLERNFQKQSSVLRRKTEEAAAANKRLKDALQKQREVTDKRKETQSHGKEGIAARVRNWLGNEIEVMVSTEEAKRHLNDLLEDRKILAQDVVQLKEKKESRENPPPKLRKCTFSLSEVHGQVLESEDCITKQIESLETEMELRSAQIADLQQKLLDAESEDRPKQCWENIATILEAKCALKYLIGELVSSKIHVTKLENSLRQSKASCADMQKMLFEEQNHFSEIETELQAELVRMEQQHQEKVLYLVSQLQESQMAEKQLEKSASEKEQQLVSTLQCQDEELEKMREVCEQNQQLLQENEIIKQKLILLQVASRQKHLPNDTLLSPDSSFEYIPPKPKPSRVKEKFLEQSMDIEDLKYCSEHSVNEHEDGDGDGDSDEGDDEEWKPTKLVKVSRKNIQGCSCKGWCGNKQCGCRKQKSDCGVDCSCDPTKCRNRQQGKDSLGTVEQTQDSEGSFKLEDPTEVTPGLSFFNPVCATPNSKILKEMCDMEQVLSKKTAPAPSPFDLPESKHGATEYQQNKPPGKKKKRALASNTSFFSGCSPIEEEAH
# UniProt Q9Y448: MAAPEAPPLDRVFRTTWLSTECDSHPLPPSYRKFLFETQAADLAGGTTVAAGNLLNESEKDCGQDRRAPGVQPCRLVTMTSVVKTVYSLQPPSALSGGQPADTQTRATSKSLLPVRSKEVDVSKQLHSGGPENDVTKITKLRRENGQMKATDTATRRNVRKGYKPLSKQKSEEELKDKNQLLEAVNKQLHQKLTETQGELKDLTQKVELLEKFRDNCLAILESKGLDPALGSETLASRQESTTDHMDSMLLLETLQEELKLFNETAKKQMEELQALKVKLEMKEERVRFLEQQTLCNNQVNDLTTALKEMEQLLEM
# UniProt Q6YP21: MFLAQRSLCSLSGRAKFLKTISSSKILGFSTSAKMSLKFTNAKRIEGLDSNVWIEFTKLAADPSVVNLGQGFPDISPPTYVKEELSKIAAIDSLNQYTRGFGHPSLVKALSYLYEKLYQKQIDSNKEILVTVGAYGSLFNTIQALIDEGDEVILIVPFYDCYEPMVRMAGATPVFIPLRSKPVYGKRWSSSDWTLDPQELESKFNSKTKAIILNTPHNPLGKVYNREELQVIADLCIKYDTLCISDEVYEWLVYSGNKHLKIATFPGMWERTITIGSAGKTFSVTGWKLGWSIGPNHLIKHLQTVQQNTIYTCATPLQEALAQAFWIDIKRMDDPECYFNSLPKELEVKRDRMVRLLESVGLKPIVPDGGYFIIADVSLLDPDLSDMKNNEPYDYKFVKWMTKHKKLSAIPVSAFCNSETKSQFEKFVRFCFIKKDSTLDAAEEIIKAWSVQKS
# UniProt O60662: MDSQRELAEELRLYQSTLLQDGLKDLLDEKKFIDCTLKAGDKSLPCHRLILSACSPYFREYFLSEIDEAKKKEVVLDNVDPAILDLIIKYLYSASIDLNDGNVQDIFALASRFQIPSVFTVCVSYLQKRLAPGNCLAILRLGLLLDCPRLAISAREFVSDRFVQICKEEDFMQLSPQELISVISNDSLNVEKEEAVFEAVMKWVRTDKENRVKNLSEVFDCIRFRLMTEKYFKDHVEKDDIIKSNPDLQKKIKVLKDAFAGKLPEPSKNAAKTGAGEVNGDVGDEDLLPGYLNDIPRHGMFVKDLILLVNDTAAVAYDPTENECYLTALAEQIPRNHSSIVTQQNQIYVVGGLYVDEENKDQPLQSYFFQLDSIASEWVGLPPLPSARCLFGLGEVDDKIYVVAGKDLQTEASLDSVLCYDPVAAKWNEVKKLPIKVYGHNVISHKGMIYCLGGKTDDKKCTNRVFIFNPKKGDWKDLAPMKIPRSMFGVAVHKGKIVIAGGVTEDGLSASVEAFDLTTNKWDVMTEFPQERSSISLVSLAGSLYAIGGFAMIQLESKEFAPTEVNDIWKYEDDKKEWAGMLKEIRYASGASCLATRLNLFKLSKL
# UniProt Q9H1H9: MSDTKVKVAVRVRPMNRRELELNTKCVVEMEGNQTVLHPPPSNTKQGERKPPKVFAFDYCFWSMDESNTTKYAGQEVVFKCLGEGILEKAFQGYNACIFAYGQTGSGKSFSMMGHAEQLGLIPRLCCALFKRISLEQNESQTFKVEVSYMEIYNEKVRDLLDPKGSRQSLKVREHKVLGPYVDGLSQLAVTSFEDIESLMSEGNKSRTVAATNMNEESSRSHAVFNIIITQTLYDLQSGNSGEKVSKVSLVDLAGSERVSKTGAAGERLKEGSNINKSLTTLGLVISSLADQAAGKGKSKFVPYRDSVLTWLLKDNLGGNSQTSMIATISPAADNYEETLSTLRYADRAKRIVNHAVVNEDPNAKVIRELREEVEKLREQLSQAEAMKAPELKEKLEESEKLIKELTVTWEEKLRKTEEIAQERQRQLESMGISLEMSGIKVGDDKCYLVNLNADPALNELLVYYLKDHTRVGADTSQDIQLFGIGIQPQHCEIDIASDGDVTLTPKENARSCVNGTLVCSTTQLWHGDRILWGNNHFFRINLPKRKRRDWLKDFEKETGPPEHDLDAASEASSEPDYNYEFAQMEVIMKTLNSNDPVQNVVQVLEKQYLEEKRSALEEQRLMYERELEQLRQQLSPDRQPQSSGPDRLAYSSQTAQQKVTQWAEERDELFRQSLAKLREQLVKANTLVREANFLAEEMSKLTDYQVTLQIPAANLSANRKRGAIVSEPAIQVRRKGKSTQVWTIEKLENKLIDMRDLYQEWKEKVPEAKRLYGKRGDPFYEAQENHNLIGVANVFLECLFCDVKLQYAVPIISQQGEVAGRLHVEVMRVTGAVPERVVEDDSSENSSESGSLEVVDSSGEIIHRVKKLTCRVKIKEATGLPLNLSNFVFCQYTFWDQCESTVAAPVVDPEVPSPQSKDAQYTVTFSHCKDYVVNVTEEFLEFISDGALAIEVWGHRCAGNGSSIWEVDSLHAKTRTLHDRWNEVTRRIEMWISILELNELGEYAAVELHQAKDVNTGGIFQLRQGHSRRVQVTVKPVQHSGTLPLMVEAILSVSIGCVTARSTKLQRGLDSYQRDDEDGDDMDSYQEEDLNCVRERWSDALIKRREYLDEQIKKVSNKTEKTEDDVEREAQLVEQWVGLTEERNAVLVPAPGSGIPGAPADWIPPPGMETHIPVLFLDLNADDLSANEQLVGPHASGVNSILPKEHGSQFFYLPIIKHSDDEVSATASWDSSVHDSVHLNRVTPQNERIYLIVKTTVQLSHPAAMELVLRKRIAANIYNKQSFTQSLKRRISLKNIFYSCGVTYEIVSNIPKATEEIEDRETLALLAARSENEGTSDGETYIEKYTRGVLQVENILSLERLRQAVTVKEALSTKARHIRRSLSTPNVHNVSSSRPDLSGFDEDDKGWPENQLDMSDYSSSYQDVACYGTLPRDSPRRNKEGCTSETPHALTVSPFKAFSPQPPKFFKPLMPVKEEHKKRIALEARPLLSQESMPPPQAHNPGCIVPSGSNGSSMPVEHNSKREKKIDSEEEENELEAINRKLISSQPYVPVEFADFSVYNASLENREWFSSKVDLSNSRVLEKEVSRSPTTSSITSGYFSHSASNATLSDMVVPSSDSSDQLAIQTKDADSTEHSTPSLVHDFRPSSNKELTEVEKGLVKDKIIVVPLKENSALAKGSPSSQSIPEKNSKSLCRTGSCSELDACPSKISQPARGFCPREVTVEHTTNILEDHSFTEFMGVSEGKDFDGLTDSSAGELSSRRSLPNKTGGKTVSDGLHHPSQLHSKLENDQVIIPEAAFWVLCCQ
# This is one part of the list.
# Compound: Cn1cncc1[C@@](N)(c1ccc(Cl)cc1)c1ccc2c(c1)c(-c1cccc(Cl)c1)cc(=O)n2C [tipifarnib]
# Assay: log2 fold change, soluble protein after heating vs DMSO (PISA); higher = thermal stabilisation; K562 lysate, 10 uM; active = over 0.2 and 3.5 SD of the protein, either way, in both replicates (recomputed)
# In short: (§1)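 Quantification was by TMTpro 16plex LC-MS/MS with equalised channel sums, applied to the supernatant after 21,000xg for 90 min. Samples were crude K562 extract at 1 mg/mL protein in PBS pH 7.4 with 1 mM MgCl2, treated with 10 μM compound for 30 min, heated for 3 min across 48°C-58°C, pooled and brought to 0.5% NP-40 at 4°C. Values are log-two fold changes in thermal stability relative to solvent controls, from duplicates.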
row,Target,log2 fold change
1,KIF11 (UniProt P52732),inactive: -0.007
2,LARP1 (UniProt Q6PKG0),inactive: 0.009
3,KXD1 (UniProt Q9BQD3),inactive: 0.1
4,KLHL7 (UniProt Q8IXQ5),inactive: 0.127
5,KLHL26 (UniProt Q53HC5),inactive: -0.044
6,KIF5A (UniProt Q12840),inactive: 0.055
7,KRTCAP2 isoform 2 (UniProt Q8N6L1),inactive: 0.007
8,LACTB2 (UniProt Q53H82),inactive: 0.015
9,KEL (UniProt P23276),inactive: 0.101
10,KIAA1191 (UniProt Q96A73),inactive: 0.072
11,KPNB1 (UniProt Q14974),inactive: -0.01
12,L1RE1 (UniProt Q9UN81),inactive: 0.006
13,KIF3C (UniProt O14782),inactive: -0.187
14,KRAS (UniProt P01116),inactive: 0.129
15,KIF14 (UniProt Q15058),inactive: -0.046
16,LAMTOR4 (UniProt Q0VGL1),inactive: -0.012

row,Target,log2 fold change
1,KIF21A isoform 5 (UniProt Q7Z4S6),inactive: -0.048
2,KIF4B (UniProt Q2VIQ3),inactive: -0.009
3,KLHL42 (UniProt Q9P2K6),inactive: -0.056
4,KYNU (UniProt Q16719),inactive: 0.093
5,"LARP1B, A0A3B3ISF0",inactive: 0.14
6,KNSTRN (UniProt Q9Y448),inactive: 0.033
7,KYAT3 (UniProt Q6YP21),inactive: 0.013
8,LAMP1 (UniProt P11279),inactive: -0.012
9,KIAA0513 (UniProt O60268),inactive: -0.086
10,KDSR (UniProt Q06136),inactive: -0.039
11,KIAA2013 (UniProt Q8IYS2),inactive: -0.031
12,KLHL41 (UniProt O60662),inactive: -0.066
13,KIF13A isoform 4 (UniProt Q9H1H9),inactive: 0.067
14,KTI12 (UniProt Q96EK9),inactive: -0.007
15,LANCL1 (UniProt O43813),inactive: 0.016
16,KIF22 (UniProt Q14807),inactive: -0.015

# Compound: NC(=O)Nc1cc(-c2cccc(F)c2)sc1C(=O)N[C@H]1CCCNC1
# Assay: as above
# In short: as §1
row,Target,log2 fold change
1,KIF11 (UniProt P52732),inactive: 0.006
2,LARP1 (UniProt Q6PKG0),inactive: 0.017
3,KXD1 (UniProt Q9BQD3),inactive: 0.01
4,KLHL7 (UniProt Q8IXQ5),inactive: -0.013
5,KLHL26 (UniProt Q53HC5),inactive: 0.079
6,KIF5A (UniProt Q12840),inactive: 0
7,KRTCAP2 isoform 2 (UniProt Q8N6L1),inactive: 0.022
8,LACTB2 (UniProt Q53H82),inactive: -0.026
9,KEL (UniProt P23276),inactive: 0.025
10,KIAA1191 (UniProt Q96A73),inactive: 0.006
11,KPNB1 (UniProt Q14974),inactive: -0.006
12,L1RE1 (UniProt Q9UN81),inactive: 0.026
13,KIF3C (UniProt O14782),inactive: 0.043
14,KRAS (UniProt P01116),inactive: -0.001
15,KIF14 (UniProt Q15058),inactive: 0
16,LAMTOR4 (UniProt Q0VGL1),inactive: 0

row,Target,log2 fold change
1,KIF21A isoform 5 (UniProt Q7Z4S6),inactive: 0.048
2,KIF4B (UniProt Q2VIQ3),inactive: 0.037
3,KLHL42 (UniProt Q9P2K6),inactive: 0.124
4,KYNU (UniProt Q16719),inactive: 0.044
5,"LARP1B, A0A3B3ISF0",inactive: -0.002
6,KNSTRN (UniProt Q9Y448),inactive: -0.02
7,KYAT3 (UniProt Q6YP21),inactive: -0.024
8,LAMP1 (UniProt P11279),inactive: 0.016
9,KIAA0513 (UniProt O60268),inactive: -0.01
10,KDSR (UniProt Q06136),inactive: 0.045
11,KIAA2013 (UniProt Q8IYS2),inactive: 0.045
12,KLHL41 (UniProt O60662),inactive: 0.066
13,KIF13A isoform 4 (UniProt Q9H1H9),inactive: 0.042
14,KTI12 (UniProt Q96EK9),inactive: 0
15,LANCL1 (UniProt O43813),inactive: -0.016
16,KIF22 (UniProt Q14807),inactive: 0.081

# Compound: NC(=O)c1cnc(N[C@@H]2CCCC[C@@H]2N)nc1Nc1cccc(-n2nccn2)c1
# Assay: as above
# In short: as §1
row,Target,log2 fold change
1,KIF11 (UniProt P52732),inactive: 0
2,LARP1 (UniProt Q6PKG0),inactive: 0.002
3,KXD1 (UniProt Q9BQD3),inactive: 0.084
4,KLHL7 (UniProt Q8IXQ5),inactive: -0.071
5,KLHL26 (UniProt Q53HC5),inactive: -0.054
6,KIF5A (UniProt Q12840),inactive: -0.008
7,KRTCAP2 isoform 2 (UniProt Q8N6L1),inactive: 0.024
8,LACTB2 (UniProt Q53H82),inactive: -0.009
9,KEL (UniProt P23276),inactive: -0.034
10,KIAA1191 (UniProt Q96A73),inactive: 0.064
11,KPNB1 (UniProt Q14974),inactive: 0.001
12,L1RE1 (UniProt Q9UN81),inactive: -0.021
13,KIF3C (UniProt O14782),inactive: -0.194
14,KRAS (UniProt P01116),inactive: 0.005
15,KIF14 (UniProt Q15058),inactive: 0.001
16,LAMTOR4 (UniProt Q0VGL1),inactive: -0.045

row,Target,log2 fold change
1,KIF21A isoform 5 (UniProt Q7Z4S6),inactive: -0.009
2,KIF4B (UniProt Q2VIQ3),inactive: 0.045
3,KLHL42 (UniProt Q9P2K6),inactive: 0.065
4,KYNU (UniProt Q16719),inactive: 0.008
5,"LARP1B, A0A3B3ISF0",inactive: -0.021
6,KNSTRN (UniProt Q9Y448),inactive: -0.002
7,KYAT3 (UniProt Q6YP21),inactive: -0.014
8,LAMP1 (UniProt P11279),inactive: -0.003
9,KIAA0513 (UniProt O60268),inactive: -0.016
10,KDSR (UniProt Q06136),inactive: -0.018
11,KIAA2013 (UniProt Q8IYS2),inactive: -0.013
12,KLHL41 (UniProt O60662),inactive: 0.036
13,KIF13A isoform 4 (UniProt Q9H1H9),inactive: -0.014
14,KTI12 (UniProt Q96EK9),inactive: 0.023
15,LANCL1 (UniProt O43813),inactive: 0.001
16,KIF22 (UniProt Q14807),inactive: -0.023
